These are yes or no findings as the source states them, for the method shown. Binding seen in cells or lysates may run through a third protein. Some results given as binding are weak or reduced against the parent protein; the word gives no strength. Tags and fused reporters may be left off the sequences shown.
Target: T1, Special AT-rich binding protein 2 (SATB2), GFP-tagged (human) (UniProt Q9UPW6)
T1 sequence: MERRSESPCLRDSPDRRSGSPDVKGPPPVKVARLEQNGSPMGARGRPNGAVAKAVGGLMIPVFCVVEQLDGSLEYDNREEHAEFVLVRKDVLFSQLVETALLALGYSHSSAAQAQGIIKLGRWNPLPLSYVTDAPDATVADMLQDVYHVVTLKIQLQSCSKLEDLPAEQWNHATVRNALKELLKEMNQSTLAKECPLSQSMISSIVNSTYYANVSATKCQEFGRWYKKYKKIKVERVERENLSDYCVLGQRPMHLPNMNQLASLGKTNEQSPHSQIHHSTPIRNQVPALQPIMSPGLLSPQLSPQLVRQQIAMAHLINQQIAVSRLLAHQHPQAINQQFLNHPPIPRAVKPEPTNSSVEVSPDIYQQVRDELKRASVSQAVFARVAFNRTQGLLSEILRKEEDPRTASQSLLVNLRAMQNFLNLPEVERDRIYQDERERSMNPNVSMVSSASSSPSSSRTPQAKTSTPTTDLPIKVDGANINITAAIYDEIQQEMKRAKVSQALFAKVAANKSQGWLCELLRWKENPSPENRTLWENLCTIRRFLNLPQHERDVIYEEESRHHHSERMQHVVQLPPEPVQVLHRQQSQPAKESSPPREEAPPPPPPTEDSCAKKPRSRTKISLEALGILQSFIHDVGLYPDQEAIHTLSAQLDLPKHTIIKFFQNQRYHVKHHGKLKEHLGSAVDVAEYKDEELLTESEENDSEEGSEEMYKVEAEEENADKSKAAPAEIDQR
Assay: co-IP; lysate (Pierce IP Lysis Buffer, sonicated) of SATB2-GFP-circ-3×FLAG tagged BEAS-2B cells; Dynabeads Protein G pre-bound to SATB2 or anti-FLAG M2 antibody, overnight at 4 °C, 200 µg lysate protein; western blot

Amino acid sequences for entries named in this document (tags omitted).
UniProt Q92841: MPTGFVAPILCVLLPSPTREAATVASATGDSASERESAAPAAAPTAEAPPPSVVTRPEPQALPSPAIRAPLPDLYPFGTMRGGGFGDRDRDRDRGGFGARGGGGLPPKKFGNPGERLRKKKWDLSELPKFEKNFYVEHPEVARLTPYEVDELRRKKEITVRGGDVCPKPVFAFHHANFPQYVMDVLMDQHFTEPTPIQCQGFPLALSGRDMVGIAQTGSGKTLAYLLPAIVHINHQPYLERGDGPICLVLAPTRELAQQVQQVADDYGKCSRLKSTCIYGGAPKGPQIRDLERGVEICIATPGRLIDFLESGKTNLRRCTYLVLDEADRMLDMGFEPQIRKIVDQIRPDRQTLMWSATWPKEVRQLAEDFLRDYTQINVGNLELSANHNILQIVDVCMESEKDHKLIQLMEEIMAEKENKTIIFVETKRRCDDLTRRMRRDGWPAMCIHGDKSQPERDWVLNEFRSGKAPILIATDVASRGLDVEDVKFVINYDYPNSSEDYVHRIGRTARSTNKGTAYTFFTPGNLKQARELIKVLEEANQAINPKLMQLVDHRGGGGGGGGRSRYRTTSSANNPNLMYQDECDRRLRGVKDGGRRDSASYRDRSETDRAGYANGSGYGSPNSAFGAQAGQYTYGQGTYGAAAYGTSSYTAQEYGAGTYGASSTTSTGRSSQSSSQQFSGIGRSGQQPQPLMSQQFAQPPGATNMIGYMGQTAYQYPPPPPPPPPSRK
UniProt Q9Y5B9: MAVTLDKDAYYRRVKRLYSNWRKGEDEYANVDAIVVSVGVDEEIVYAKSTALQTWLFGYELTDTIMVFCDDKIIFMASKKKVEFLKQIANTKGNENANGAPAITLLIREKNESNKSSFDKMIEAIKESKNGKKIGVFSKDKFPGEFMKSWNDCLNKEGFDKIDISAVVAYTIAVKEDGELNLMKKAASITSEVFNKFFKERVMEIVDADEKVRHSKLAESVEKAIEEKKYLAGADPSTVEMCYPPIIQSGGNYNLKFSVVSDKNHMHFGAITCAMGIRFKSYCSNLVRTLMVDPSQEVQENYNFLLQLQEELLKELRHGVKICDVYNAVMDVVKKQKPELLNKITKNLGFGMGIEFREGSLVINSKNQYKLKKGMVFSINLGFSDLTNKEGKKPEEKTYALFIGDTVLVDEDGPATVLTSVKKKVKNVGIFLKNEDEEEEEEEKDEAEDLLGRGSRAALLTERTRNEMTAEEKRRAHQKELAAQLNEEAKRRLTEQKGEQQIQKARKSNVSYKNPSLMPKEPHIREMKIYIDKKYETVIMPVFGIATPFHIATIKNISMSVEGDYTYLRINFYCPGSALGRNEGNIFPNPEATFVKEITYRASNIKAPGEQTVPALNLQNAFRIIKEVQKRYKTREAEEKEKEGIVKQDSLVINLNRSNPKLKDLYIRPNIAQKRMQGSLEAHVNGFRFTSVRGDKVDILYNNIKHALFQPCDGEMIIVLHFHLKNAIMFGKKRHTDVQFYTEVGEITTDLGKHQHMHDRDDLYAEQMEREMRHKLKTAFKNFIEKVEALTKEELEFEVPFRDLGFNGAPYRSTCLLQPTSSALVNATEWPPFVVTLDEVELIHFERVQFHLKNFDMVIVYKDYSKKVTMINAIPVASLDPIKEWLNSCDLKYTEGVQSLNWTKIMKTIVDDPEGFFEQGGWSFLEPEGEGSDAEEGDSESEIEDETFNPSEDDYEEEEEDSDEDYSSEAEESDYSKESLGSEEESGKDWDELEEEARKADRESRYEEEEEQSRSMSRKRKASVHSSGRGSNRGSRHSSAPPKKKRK

Row | Substance | binding
1 | DDX17 (from UniProt Q92841 1-729) | binds
2 | SUPT16H (from UniProt Q9Y5B9 1-1047) | binds

— PMC13551775
